Data as given in PubChem BioAssay AID602196 (INSERM, 2012).

- Test: 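Knock-downs that protect lung cancer cells from cisplatin or sensitise them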
- Cell system: human A549 lung cancer cells
- Reagent: siRNA pair against human genes
- Duration: 48 h transfection before cisplatin; time from cisplatin to read-out not stated
- Conditions: cisplatin at a dose killing half of control-siRNA cells; exact dose and duration not given
- Measured: 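Cisplatin cell death as a shift from the 50% death seen with control siRNA; siRNAs toxic or growth-blocking alone scored 0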
- Scale: two-siRNA summed score (-2 to +2): higher = both siRNAs protect from cisplatin killing; -2 means both sensitise; mean protection from cisplatin (shift in death) and protection from cisplatin (shift in death), siRNA C: higher = protection from cisplatin killing
- Call rule: 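Each siRNA scores 0 if harmful alone by LDH or WST-1, otherwise +1 if it reduces and -1 if it increases cisplatin killing; a gene is active when both siRNAs agree (sum +2 or -2)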
- Calls: active = both siRNAs shift cisplatin killing the same way; inactive = no consistent shift, or siRNA harmful alone
Here is a random part of about 23,000 reagents tested. 455 of all reagents (2%) were called active. 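Active includes both protection and sensitisation; some change values fall well beyond the stated -50 to +50 range.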 Entries without a mark were called inactive. Further read-outs or replicates are left out here. The record does not give: the amount of reagent.

target gene | two-siRNA summed score (-2 to +2) | mean protection from cisplatin (shift in death) (%) | protection from cisplatin (shift in death), siRNA C (%)
WNT3 | 1 | 14.1 | 10.2
HTN3 | 0 | 5.7 | 16.8
SSX1 | 0 | 12.7 | 16.5
OR5W2 | 1 | 8.8 | 16.1
TAF1B | -1 | 0.1 | 10
CASC2 | 2 (active) | 16.9 | 19
GPC4 | 0 | 21.7 | 35.5
LOC388291 | -1 | -5.6 | 14.6
UBTD1 | 0 | 9.3 | 9.9
ZNF684 | 1 | 6.4 | -10.7
LOC400856 | 0 | 12.3 | 8.6
LOC284274 | 0 | 5.5 | 1.6
ARHGAP24 | -1 | -6.1 | 5.2
LOC442406 | -1 | -6.9 | -14.1
LOC442115 | 1 | 29.3 | 33
LOC442007 | 1 | 11.6 | 22.9
SPTBN5 | 0 | -6.9 | -18.1
IL23R | -2 (active) | -20.9 | -12.8
HMBOX1 | -1 | -6 | -1.2
ORMDL1 | 0 | -7.2 | 7.5
CDKN1C | 1 | 13.3 | 16.7
RPL35P10 | 1 | 13.3 | 16.1
SMPDL3B | 0 | 12.5 | 13.2
PMM2 | -1 | -26.8 | -49.8
JSRP1 | 0 | 8.6 | 5.7
RPGR | 0 | -4.5 | 1
LOC121981 | 0 | 5.8 | 2.3
LOC400662 (retired record) | 0 | 2.2 | -9
TRPV1 | -1 | -12.3 | -14.1
TRPM5 | -1 | -6.7 | -21.3
NDC80 | 0 | -14.4 | -2.1
CAMK2D | 1 | 11.7 | 28.9
PHAX | 0 | 6 | 9.8
OR9A4 | 0 | -5.3 | -5.2
PRKG1 | 0 | -7.3 | 0.2
XPA | 0 | 2.8 | -23.6
LOC441937 | 0 | 12.4 | 10.3
BMPR1A | 0 | -0.5 | -1.3
CRKL | 1 | 9.4 | 12.3

5 entries already listed, sorted by “protection from cisplatin (shift in death), siRNA C (%)”, highest first:
target gene | two-siRNA summed score (-2 to +2) | mean protection from cisplatin (shift in death) (%) | protection from cisplatin (shift in death), siRNA C (%)
LOC441937 | 0 | 12.4 | 10.3
PHAX | 0 | 6 | 9.8
PRKG1 | 0 | -7.3 | 0.2
OR9A4 | 0 | -5.3 | -5.2
XPA | 0 | 2.8 | -23.6
